Source: the supplement of paper PMC10849652
The other results are listed elsewhere or left out.

Amino acid sequences for entries named in this document (tags omitted). A change or cut given only in a name is not applied to a line headed by its entry.
UniProt Q96LA8, whole entry, looked up: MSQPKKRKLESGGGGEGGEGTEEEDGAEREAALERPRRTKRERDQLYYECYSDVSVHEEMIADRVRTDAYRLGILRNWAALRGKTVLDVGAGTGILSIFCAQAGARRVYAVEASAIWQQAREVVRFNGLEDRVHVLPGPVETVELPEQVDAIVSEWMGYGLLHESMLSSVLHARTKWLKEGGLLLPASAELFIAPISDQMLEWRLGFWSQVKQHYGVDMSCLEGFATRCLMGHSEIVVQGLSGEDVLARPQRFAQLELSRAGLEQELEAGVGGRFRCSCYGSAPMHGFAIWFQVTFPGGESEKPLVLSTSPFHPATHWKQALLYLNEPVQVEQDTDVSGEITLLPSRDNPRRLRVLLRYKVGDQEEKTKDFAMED
UniProt Q99633: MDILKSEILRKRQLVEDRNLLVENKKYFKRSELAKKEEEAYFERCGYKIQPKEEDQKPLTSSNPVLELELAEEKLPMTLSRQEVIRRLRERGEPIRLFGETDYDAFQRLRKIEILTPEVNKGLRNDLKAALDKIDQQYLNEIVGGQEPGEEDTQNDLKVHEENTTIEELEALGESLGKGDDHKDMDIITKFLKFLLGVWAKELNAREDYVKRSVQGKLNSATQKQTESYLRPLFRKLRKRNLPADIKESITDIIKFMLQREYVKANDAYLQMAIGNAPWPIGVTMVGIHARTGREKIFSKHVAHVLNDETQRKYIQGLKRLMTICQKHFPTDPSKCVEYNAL
UniProt O94806: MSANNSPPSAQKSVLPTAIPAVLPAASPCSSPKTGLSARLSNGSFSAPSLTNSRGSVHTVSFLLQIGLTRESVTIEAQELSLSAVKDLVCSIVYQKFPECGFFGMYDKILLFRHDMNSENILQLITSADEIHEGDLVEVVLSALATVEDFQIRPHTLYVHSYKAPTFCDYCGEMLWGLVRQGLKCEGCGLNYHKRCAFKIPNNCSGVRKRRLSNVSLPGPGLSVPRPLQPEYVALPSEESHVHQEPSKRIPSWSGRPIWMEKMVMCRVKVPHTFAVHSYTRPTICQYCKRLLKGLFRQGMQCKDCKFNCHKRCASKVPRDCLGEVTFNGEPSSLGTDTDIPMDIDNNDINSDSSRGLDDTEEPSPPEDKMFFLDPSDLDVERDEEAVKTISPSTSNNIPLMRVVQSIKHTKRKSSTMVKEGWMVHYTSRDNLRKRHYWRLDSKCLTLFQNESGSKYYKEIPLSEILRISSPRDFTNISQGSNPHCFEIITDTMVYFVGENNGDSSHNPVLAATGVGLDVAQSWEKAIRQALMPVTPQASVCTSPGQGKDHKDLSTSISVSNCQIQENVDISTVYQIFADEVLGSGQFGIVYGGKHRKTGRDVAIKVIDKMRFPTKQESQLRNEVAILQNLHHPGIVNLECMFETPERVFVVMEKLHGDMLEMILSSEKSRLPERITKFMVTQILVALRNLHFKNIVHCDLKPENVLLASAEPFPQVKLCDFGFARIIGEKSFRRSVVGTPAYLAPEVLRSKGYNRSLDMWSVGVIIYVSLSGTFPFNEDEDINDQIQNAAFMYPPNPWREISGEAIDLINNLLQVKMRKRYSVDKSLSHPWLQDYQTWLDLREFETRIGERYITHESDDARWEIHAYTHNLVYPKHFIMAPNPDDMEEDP
UniProt Q9UNN8: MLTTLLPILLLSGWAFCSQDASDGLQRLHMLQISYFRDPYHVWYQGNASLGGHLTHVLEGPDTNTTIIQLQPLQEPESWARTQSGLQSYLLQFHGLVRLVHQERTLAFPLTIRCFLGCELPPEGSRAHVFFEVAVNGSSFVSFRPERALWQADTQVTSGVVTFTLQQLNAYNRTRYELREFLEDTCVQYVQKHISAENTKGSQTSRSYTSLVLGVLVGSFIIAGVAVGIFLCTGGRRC
UniProt P10644, whole entry, looked up: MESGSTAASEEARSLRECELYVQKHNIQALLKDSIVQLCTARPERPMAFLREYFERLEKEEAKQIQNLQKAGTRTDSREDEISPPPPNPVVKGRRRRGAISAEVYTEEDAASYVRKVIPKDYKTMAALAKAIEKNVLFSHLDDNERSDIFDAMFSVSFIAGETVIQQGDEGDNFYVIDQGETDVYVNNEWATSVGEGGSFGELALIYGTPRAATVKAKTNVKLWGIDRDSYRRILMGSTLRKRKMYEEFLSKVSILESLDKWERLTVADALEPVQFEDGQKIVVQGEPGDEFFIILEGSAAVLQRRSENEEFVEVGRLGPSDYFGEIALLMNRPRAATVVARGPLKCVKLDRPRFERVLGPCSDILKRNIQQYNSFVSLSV
UniProt P07478, whole entry, looked up: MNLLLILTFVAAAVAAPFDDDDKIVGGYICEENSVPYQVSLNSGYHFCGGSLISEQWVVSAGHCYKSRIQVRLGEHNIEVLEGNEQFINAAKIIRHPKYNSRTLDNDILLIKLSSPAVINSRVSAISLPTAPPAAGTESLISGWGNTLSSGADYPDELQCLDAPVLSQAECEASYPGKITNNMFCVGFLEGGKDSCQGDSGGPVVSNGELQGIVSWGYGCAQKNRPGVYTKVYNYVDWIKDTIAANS
UniProt O75807, whole entry, looked up: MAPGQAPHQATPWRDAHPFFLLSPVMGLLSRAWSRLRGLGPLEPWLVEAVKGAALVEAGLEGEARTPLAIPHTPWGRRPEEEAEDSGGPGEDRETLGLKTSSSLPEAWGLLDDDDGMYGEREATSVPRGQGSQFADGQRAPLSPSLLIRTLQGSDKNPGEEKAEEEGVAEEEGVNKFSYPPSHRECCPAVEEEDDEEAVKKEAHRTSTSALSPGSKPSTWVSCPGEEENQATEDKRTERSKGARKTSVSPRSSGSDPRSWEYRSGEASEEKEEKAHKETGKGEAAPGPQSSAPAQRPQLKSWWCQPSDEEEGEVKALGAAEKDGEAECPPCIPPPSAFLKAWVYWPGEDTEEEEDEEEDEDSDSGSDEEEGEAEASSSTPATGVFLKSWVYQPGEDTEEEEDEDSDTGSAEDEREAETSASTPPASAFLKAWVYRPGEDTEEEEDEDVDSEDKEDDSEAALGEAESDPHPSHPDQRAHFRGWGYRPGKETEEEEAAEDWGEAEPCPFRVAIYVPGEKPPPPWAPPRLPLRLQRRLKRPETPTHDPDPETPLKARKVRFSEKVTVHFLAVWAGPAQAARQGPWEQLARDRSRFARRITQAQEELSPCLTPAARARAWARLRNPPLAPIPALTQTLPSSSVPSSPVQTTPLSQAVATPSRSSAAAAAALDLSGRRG
UniProt Q16378: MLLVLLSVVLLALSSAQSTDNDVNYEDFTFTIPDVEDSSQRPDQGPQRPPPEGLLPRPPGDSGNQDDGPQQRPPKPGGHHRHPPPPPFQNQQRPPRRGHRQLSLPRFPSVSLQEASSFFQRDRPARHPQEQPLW
UniProt P55345: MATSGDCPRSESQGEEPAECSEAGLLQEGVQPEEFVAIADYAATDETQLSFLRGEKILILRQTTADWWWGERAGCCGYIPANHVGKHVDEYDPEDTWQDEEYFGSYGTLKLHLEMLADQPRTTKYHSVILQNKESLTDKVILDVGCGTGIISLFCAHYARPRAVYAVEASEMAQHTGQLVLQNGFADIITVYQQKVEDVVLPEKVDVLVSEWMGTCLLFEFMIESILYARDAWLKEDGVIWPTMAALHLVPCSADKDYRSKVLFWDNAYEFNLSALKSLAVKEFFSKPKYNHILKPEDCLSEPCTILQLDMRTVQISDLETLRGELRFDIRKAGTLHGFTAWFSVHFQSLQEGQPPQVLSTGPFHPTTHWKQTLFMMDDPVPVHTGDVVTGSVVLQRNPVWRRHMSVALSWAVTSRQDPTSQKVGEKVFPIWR
UniProt Q9BSG0: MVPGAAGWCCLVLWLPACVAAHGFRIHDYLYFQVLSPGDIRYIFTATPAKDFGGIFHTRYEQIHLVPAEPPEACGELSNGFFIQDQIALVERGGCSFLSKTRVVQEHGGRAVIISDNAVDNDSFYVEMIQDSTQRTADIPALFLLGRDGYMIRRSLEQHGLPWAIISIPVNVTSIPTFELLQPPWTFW

How the values were obtained:
Test in all cases: log2 fold change, soluble protein after heating vs DMSO (PISA); higher = thermal stabilisation; K562 cells, 10 uM, 30 min; active = over 0.2 and 3.5 SD of the protein, either way, in both replicates (recomputed)
bafetinib = compound: Cc1ccc(NC(=O)c2ccc(CN3CC[C@H](N(C)C)C3)c(C(F)(F)F)c2)cc1Nc1nccc(-c2cncnc2)n1 [bafetinib]
Procedure, shortened: (§1)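 K562 cells (2×10^6 cells/mL) were treated with 10 μM compound for 30 min, and aliquots were heated for 3 min over 48°C-58°C. Pooled aliquots were extracted in PBS with 0.5% NP-40 at 4°C, and the supernatant after 21,000xg for 90 min was measured by TMTpro 16plex LC-MS/MS with channel sums equalised. Reported thermal stability, relative to control samples and from duplicates, is a log2 fold change.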

[1] = compound: Cc1cccc(CC(=O)N2CCc3c2ccc(-c2cn(C)c4ncnc(N)c24)c3F)n1
Procedure, shortened: as §1

nilotinib = compound: Cc1cn(-c2cc(NC(=O)c3ccc(C)c(Nc4nccc(-c5cccnc5)n4)c3)cc(C(F)(F)F)c2)cn1 [nilotinib]
Procedure, shortened: as §1

[2] = compound: Cc1nc(Nc2n[nH]c3c2CN(C(=O)N[C@H](CN(C)C)c2ccccc2)C3(C)C)c2sccc2n1
Procedure, shortened: as §1

dasatinib = compound: Cc1nc(Nc2ncc(C(=O)Nc3c(C)cccc3Cl)s2)cc(N2CCN(CCO)CC2)n1 [dasatinib]
Procedure, shortened: as §1

[3] = compound: Cc1ncc(-c2ccnc(Nc3ccc(S(C)(=O)=O)cc3)n2)n1C(C)C
Procedure, shortened: as §1

[4] = compound: Cn1cc(-c2ccc3c(c2)CCN3C(=O)Cc2cccc(C(F)(F)F)c2)c2c(N)ncnc21
Procedure, shortened: as §1

[5] = compound: Cn1cc(-c2ccc3nnc(C(F)(F)c4ccc5ncccc5c4)n3n2)cn1
Procedure, shortened: as §1

tipifarnib = compound: Cn1cncc1[C@@](N)(c1ccc(Cl)cc1)c1ccc2c(c1)c(-c1cccc(Cl)c1)cc(=O)n2C [tipifarnib]
Procedure, shortened: as §1

mubritinib = compound: FC(F)(F)c1ccc(/C=C/c2nc(COc3ccc(CCCCn4ccnn4)cc3)co2)cc1 [mubritinib]
Procedure, shortened: as §1

[6] = compound: NC(=O)c1cnc(N[C@@H]2CCCC[C@@H]2N)nc1Nc1cccc(-n2nccn2)c1
Procedure, shortened: as §1

[7] = compound: NC1(c2ccc(-c3nc4ccn5c(=O)[nH]nc5c4cc3-c3ccccc3)cc2)CCC1
Procedure, shortened: as §1

[8] = compound: NCC(=O)Nc1ccc(-n2nc(C(F)(F)F)cc2-c2ccc3c(ccc4ccccc43)c2)cc1
Procedure, shortened: as §1

vorinostat = compound: O=C(CCCCCCC(=O)Nc1ccccc1)NO [vorinostat]
Procedure, shortened: as §1

citarinostat = compound: O=C(CCCCCCNC(=O)c1cnc(N(c2ccccc2)c2ccccc2Cl)nc1)NO [citarinostat]
Procedure, shortened: as §1

silmitasertib = compound: O=C(O)c1ccc2c(c1)nc(Nc1cccc(Cl)c1)c1ccncc12 [silmitasertib]
Procedure, shortened: as §1

[9] = compound: O=C1NC(=O)C(c2cnc3ccccn23)=C1c1cn2c3c(cc(F)cc13)CN(C(=O)N1CCCCC1)CC2
Procedure, shortened: as §1

[10] = compound: c1cc(OCCN2CCCCC2)cc(-c2n[nH]c3ccc(-c4nnc[nH]4)cc23)c1
Procedure, shortened: as §1

[11] = compound: NC(=O)Nc1cc(-c2cccc(F)c2)sc1C(=O)N[C@H]1CCCNC1
Procedure, shortened: as §1

entinostat = compound: Nc1ccccc1NC(=O)c1ccc(CNC(=O)OCc2cccnc2)cc1 [entinostat]
Procedure, shortened: as §1

Measured: log2 fold change

PRMT6 (UniProt Q96LA8)
inactive: bafetinib -0.001 | [1] 0.041 | nilotinib -0.012 | [2] 0.001 | dasatinib -0.017 | [3] 0.02 | [4] 0.176 | [5] 0.047 | tipifarnib -0.098 | mubritinib 0.105 | [6] -0.004 | [7] -0.148 | [8] -0.003 | vorinostat -0.037 | citarinostat 0.022 | silmitasertib 0.072 | [9] -0.02 | [10] -0.02

PRPF8 (UniProt Q6P2Q9)
inactive: bafetinib 0.081 | [1] 0 | nilotinib 0.011 | [2] -0.003 | dasatinib -0.007 | [3] 0.033 | [4] -0.16 | [5] -0.091 | tipifarnib 0 | mubritinib -0.011 | [11] 0.02 | [6] -0.011 | [7] 0.023 | [8] 0.022 | entinostat -0.008 | vorinostat -0.02 | citarinostat -0.03 | silmitasertib 0.043 | [9] 0.061 | [10] -0.157

PRPF18 (UniProt Q99633)
inactive: bafetinib -0.082 | [1] -0.016 | nilotinib -0.109 | [2] -0.146 | dasatinib 0.046 | [3] -0.024 | [4] 0.013 | tipifarnib 0.007 | mubritinib 0.063 | [11] 0 | [6] 0.125 | [7] -0.262 | [8] -0.074 | entinostat 0.003 | vorinostat 0.162 | citarinostat -0.102 | silmitasertib 0.03 | [9] -0.213 | [10] 0.014

PRKD3 (UniProt O94806)
inactive: bafetinib -0.011 | [1] -0.231 | dasatinib -0.258 | [4] -0.079 | [5] 0.006 | mubritinib -0.062 | [11] -0.565 | [6] -0.263 | [7] -0.285 | [8] -0.213 | entinostat 0.34 | vorinostat 0.096 | silmitasertib 0.021

PROCR (UniProt Q9UNN8)
inactive: bafetinib 0.097 | [1] 0.057 | nilotinib 0.086 | [2] -0.021 | dasatinib 0.034 | [3] 0.041 | [4] -0.01 | tipifarnib 0.004 | [11] 0.064 | [6] 0.278 | [8] 0.082 | entinostat -0.064 | vorinostat 0.019 | citarinostat -0.045 | [9] -0.056 | [10] 0.019

PRKACB isoform 2 (UniProt P22694)
inactive: bafetinib -0.06 | [1] 0.04 | nilotinib -0.021 | dasatinib -0.021 | [3] -0.037 | [4] -0.013 | [5] -0.004 | tipifarnib -0.144 | mubritinib 0.051 | [11] 0.078 | [6] -0.11 | [7] -0.173 | [8] -0.02 | entinostat 0.001 | vorinostat 0.04 | citarinostat 0.015 | silmitasertib -0.002 | [9] -0.119 | [10] -0.065
active: [2] 0.647

PPP2R1B (UniProt H0YDG7)
inactive: bafetinib -0.816 | [1] -0.501 | nilotinib -0.156 | [2] 0.068 | [3] -0.063 | [4] 0.001 | mubritinib -0.056 | [11] -0.473 | [7] 0.04 | entinostat -0.188 | vorinostat -0.431 | citarinostat -0.269 | silmitasertib -0.024 | [10] -0.017

PRKAR1A (UniProt P10644)
inactive: bafetinib 0.232 | [1] -0.006 | nilotinib 0.12 | [2] 0.195 | dasatinib -0.046 | [3] 0.152 | [4] 0 | [5] 0.281 | tipifarnib 0.231 | mubritinib -0.169 | [11] -0.052 | [6] 0.191 | [7] 0.301 | [8] -0.041 | entinostat -0.068 | vorinostat -0.16 | citarinostat 0 | silmitasertib 0.166 | [9] 0.063 | [10] -0.04

PPP3CA (UniProt Q08209)
inactive: bafetinib -0.085 | [1] -0.034 | nilotinib -0.149 | [2] 0.052 | dasatinib 0.036 | [3] 0.046 | [4] 0.076 | [5] 0 | tipifarnib -0.019 | mubritinib 0.044 | [11] 0 | [6] 0.062 | [7] -0.203 | [8] 0.192 | entinostat -0.04 | vorinostat 0.084 | citarinostat 0.019 | silmitasertib 0.067 | [10] -0.02

PRSS2 (UniProt P07478)
inactive: bafetinib -0.001 | nilotinib -0.004 | [2] -0.195 | dasatinib 0.208 | [3] -0.024 | [4] -0.093 | tipifarnib 0.107 | [11] -0.137 | [6] 0.093 | [8] 0.027 | entinostat -0.13 | [9] -0.013

PPP1R15A (UniProt O75807)
inactive: tipifarnib -0.047 | [11] -0.13 | entinostat -0.061 | [9] -0.164

PRR4 (UniProt Q16378)
inactive: bafetinib 0.594 | nilotinib 0.439 | [2] 0.068 | [3] -0.181 | [5] -0.053 | mubritinib 0.135 | [6] 0.25 | [7] 0.05 | silmitasertib -0.027

PRMT2 (UniProt P55345)
inactive: [11] -0.317 | entinostat 0.032

PRADC1 (UniProt Q9BSG0)
inactive: [1] -0.074 | dasatinib -0.207 | [4] 0.051 | mubritinib 0.004 | [11] -0.064 | [7] 0.084 | [8] 0.174 | entinostat -0.02 | vorinostat 0.009 | citarinostat -0.614 | silmitasertib 0.135 | [9] 0 | [10] -0.117
